The list shows a part of the results. Most values lie at the level of the controls, where differences are scatter.

Amino acid sequences for entries named in this document (tags omitted). A change or cut given only in a name is not applied to a line headed by its entry.
UniProt Q8K0T0: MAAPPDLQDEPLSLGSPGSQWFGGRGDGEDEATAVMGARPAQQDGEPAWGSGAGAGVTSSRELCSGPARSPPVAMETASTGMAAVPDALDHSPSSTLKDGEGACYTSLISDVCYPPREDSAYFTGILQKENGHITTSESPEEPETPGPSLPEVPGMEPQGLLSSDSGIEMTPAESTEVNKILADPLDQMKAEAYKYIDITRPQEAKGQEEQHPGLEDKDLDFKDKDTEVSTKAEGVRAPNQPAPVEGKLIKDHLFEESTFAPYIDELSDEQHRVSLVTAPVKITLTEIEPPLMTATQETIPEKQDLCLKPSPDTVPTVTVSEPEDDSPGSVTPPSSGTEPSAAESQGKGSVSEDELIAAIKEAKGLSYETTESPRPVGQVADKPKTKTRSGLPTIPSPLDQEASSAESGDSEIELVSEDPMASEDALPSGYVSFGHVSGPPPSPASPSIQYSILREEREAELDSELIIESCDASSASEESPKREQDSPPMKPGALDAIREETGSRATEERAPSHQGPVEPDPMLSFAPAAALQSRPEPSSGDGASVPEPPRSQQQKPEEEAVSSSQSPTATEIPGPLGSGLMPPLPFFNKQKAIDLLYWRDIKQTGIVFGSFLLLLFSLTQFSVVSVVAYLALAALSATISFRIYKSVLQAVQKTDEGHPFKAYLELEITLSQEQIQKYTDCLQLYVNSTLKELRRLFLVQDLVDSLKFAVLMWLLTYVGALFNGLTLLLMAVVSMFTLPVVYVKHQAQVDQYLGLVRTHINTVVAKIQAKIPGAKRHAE
UniProt Q8CB77: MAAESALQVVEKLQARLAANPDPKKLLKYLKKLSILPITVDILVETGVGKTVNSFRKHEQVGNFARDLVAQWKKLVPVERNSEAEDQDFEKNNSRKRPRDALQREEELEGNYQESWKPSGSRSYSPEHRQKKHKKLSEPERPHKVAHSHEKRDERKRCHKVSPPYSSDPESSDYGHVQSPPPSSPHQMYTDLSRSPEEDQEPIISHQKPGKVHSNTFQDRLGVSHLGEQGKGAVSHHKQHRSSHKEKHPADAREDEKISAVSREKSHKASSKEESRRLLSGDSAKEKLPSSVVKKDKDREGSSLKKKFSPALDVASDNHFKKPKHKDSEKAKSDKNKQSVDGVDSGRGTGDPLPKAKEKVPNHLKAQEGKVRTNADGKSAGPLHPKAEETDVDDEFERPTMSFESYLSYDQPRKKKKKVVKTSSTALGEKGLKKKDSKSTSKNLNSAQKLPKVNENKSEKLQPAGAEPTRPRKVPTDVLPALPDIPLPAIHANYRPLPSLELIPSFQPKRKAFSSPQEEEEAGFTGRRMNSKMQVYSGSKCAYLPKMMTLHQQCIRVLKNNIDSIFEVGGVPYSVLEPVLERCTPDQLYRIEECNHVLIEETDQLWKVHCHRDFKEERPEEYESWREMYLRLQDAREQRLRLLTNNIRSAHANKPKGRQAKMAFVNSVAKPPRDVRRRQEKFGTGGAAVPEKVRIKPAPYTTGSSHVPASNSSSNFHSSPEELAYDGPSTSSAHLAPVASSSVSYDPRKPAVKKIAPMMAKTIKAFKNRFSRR
UniProt Q8CHR6: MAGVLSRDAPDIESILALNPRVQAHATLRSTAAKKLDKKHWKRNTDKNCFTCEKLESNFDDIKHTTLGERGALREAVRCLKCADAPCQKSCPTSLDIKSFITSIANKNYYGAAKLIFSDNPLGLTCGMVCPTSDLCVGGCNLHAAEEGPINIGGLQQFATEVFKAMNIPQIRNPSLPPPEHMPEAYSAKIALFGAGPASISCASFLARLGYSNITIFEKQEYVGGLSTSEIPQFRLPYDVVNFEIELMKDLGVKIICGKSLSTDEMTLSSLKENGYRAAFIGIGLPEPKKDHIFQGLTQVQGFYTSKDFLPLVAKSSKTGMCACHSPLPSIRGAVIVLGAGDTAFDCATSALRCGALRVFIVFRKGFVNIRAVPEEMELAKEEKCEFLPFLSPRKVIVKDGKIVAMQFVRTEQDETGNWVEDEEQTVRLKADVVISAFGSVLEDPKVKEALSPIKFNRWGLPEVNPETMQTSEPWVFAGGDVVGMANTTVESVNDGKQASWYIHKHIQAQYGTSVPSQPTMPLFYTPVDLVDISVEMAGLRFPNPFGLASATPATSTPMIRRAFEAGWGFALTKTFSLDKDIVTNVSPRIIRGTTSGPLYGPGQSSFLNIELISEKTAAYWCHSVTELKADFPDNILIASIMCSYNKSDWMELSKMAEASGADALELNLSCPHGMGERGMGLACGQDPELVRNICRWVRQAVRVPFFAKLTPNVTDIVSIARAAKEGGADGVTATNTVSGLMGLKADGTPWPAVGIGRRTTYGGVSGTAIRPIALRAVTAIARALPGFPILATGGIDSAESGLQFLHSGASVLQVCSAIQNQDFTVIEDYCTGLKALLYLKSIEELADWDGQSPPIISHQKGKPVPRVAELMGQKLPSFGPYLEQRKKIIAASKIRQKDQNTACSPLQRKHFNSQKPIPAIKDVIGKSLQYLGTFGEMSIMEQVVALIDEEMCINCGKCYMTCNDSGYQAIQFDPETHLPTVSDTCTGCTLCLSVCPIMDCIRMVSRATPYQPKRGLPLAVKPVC
UniProt Q8CJG0, whole entry: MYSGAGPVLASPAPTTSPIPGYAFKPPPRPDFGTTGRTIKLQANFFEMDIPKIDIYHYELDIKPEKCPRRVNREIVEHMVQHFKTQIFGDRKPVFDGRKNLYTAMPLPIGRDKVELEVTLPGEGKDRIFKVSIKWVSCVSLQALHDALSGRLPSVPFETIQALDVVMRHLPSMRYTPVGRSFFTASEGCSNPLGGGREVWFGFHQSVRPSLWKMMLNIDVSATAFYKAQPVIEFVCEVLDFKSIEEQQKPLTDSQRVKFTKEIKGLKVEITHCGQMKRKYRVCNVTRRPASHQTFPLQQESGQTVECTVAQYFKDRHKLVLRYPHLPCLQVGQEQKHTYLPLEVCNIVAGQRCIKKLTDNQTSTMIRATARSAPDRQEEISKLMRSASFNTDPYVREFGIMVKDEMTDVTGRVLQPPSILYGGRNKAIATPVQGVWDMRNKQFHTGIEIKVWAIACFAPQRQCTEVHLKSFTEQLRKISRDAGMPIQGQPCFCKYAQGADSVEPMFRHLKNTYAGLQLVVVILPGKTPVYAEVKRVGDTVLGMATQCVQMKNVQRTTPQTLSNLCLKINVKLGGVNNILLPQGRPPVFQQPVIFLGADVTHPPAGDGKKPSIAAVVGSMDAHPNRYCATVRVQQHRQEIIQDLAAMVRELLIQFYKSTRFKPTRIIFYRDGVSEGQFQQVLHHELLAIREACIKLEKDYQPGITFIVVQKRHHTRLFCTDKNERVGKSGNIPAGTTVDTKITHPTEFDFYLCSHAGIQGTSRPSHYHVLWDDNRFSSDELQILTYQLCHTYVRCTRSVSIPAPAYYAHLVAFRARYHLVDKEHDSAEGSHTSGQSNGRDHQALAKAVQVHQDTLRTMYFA
UniProt Q8K0Y7: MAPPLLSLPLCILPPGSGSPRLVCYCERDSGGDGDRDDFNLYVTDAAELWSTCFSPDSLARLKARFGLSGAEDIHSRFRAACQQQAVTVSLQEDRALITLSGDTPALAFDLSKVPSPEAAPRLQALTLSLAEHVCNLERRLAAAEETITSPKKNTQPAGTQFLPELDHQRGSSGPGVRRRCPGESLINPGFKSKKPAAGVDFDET
UniProt Q8CC35: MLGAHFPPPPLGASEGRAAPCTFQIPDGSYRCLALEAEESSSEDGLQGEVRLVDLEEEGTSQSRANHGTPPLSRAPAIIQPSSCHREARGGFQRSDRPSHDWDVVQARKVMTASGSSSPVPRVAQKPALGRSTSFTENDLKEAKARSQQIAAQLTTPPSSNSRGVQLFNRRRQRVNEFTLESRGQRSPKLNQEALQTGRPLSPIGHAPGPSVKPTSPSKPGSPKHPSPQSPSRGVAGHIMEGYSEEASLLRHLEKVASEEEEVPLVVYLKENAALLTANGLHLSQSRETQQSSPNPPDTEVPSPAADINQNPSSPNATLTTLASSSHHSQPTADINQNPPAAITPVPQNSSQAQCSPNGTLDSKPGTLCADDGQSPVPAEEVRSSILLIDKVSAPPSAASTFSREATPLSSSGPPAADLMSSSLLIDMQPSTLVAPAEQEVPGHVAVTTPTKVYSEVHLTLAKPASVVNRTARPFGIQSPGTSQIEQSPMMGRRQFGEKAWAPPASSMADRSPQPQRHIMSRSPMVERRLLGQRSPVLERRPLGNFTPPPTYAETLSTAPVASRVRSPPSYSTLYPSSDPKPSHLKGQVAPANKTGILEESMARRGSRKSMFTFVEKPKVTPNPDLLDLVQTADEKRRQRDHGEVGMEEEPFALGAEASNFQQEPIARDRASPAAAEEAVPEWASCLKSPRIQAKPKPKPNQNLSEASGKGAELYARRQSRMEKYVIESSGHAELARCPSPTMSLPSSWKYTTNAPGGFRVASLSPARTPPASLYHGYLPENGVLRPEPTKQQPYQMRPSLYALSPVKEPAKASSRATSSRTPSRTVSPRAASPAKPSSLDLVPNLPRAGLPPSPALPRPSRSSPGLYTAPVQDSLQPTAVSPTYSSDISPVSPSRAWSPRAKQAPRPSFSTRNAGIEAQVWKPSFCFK
UniProt Q8CGZ0: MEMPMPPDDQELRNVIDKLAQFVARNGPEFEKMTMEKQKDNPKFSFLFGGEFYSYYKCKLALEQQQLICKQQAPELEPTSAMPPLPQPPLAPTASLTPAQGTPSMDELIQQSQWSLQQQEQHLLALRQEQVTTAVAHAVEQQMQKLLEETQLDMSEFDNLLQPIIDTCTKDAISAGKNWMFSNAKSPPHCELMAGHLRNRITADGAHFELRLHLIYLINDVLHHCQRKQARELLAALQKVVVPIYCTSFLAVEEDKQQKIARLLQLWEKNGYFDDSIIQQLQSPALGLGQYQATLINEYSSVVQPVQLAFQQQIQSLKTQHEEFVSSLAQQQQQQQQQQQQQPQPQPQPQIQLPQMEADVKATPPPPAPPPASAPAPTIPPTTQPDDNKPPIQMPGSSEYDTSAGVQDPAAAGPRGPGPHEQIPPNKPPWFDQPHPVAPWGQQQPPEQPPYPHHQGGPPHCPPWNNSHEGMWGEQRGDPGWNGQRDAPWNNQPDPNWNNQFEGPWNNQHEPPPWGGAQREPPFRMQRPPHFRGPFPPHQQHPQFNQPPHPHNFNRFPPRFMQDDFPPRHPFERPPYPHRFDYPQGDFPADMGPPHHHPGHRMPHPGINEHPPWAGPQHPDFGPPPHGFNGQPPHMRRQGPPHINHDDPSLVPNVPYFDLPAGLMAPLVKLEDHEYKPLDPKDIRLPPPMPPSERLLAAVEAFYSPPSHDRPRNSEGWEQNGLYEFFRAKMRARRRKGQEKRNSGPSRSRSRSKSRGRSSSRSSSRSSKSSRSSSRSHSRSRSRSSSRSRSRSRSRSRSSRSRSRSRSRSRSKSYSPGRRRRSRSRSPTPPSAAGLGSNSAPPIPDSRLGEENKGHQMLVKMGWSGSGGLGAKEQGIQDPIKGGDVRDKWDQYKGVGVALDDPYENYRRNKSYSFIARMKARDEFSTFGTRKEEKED
UniProt Q8CGY8: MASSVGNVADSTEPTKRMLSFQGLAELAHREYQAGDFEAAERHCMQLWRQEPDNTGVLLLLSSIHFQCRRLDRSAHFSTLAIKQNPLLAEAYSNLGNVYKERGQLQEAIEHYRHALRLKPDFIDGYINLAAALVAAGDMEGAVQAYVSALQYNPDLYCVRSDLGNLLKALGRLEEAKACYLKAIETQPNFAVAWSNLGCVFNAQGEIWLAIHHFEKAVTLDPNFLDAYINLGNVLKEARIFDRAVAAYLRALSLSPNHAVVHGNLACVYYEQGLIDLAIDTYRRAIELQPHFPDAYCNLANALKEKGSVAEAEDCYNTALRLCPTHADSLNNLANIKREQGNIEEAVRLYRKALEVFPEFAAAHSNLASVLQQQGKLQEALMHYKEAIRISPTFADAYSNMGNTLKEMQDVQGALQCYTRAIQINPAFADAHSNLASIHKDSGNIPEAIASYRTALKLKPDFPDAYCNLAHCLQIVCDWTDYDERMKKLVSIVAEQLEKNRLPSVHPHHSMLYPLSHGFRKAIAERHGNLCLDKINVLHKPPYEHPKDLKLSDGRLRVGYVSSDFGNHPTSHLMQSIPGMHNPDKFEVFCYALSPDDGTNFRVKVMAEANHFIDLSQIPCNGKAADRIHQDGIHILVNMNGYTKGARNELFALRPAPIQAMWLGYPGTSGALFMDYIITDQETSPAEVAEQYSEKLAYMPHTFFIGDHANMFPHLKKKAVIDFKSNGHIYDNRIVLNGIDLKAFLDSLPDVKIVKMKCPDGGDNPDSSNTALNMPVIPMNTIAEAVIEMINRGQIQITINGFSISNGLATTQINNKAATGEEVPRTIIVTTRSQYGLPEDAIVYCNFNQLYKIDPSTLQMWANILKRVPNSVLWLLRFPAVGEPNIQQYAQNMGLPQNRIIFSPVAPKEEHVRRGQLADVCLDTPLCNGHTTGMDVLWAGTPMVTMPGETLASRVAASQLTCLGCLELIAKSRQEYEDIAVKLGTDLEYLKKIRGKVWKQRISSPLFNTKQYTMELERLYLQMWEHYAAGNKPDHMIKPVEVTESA

Consider 31 targets from the supplement of paper PMC12819154, “High-throughput peptide-centric local stability assay extends protein–ligand identification to membrane proteins, tissues and bacteria” (Nature Structural & Molecular Biology, 2025).

Compound in this experiment: CN[C@@H]1C[C@H]2O[C@@](C)([C@@H]1OC)n1c3ccccc3c3c4c(c5c6ccccc6n2c5c31)C(=O)NC4 [staurosporine]
The experiment is described as follows: log2 fold change of tryptic peptide abundance, ligand vs vehicle (limited proteolysis) (log2 ratio); higher = more trypsin-susceptible (destabilized). To be noted: ligand concentration: 20 uM; sample: mouse liver crude lysate; replicate design: treated separately.
For the target “UniProt Q8CIV8 (peptide sequence: NRPNAAFLSAHPR, peptide start residue: 402)”, the log2 fold change worked out at 0.456.

Take “UniProt Q8K0T0 (peptide sequence: EQDSPPMKPGALDAIR, peptide start residue: 484)”: the log2 fold change is 0.291.

Regarding “UniProt Q8CBY0 (peptide sequence: VSPAVIEHLER, peptide start residue: 50)”, the log2 fold change came to 0.2.

“UniProt Q8CB77 (peptide sequence: LQPAGAEPTRPR, peptide start residue: 461)”: the log2 fold change amounted to 0.107.

For the target “UniProt Q8CHR6 (peptide sequence: TGMCACHSPLPSIR, peptide start residue: 319)”, the log2 fold change was -0.756.

For the target “UniProt Q8CJG0 (peptide sequence: SGNIPAGTTVDTK, peptide start residue: 728)”, the log2 fold change is -0.258.

Take “UniProt Q8K039 (peptide sequence: CSGLTASSKK, peptide start residue: 109)”: the log2 fold change was -0.904.

Turning to “UniProt Q8CD92 (peptide sequence: GKLQELFGR, peptide start residue: 696)”, the log2 fold change stood at 0.359.

Take “UniProt Q8CG19 (peptide sequence: HGQTQEYLLKPK, peptide start residue: 293)”: the log2 fold change was -0.709.

For “UniProt Q8CGF5 (peptide sequence: AKDSLQNGKLD, peptide start residue: 266)”, the log2 fold change is 0.276.

For “UniProt Q8CIZ8 (peptide sequence: QHSDPCSLNPR, peptide start residue: 565)”, the log2 fold change was -0.2.

Turning to “UniProt Q8K0L3 (peptide sequence: SVTAPYKYPR, peptide start residue: 535)”, the log2 fold change was found to be 0.247.

“UniProt Q8K0Y7 (peptide sequence: CPGESLINPGFK, peptide start residue: 181)”: the log2 fold change is -0.425.

On to “UniProt Q8CHC4 (peptide sequence: SMWSVNGDSISK, peptide start residue: 427)”, for which the log2 fold change stood at 0.412.

Regarding “UniProt Q8CFK6 (peptide sequence: ASQSLDCCQR, peptide start residue: 591)”, the log2 fold change was found to be 0.241.

“UniProt Q8CFI5 (peptide sequence: HGKEYCLGPTHEEAVTALVASQKK, peptide start residue: 148)”: the log2 fold change is -0.675.

With “UniProt Q8CG16 (peptide sequence: FVRLPVADSEACQR, peptide start residue: 611)”, the log2 fold change was -0.525.

For the target “UniProt Q8CBB9 (peptide sequence: FNVDEDMNEHIK, peptide start residue: 228)”, the log2 fold change is -0.445.

Regarding “UniProt Q8CC35 (peptide sequence: YTTNAPGGFR, peptide start residue: 751)”, the log2 fold change is 0.375.

“UniProt Q8CGZ0 (peptide sequence: LPPPMPPSER, peptide start residue: 685)”: the log2 fold change worked out at 0.178.

On to “UniProt Q8CG72 (peptide sequence: EAFDEVDMAHR, peptide start residue: 99)”, for which the log2 fold change was -1.16.

Regarding “UniProt Q8CBW3 (peptide sequence: KNDDGWFEGVCNR, peptide start residue: 451)”, the log2 fold change was -0.394.

With “UniProt Q8CGY8 (peptide sequence: LQEALMHYK, peptide start residue: 377)”, the log2 fold change stood at 0.205.

For “UniProt Q8JZZ6 (peptide sequence: APITSEFRK, peptide start residue: 260)”, the log2 fold change turned out to be 0.474.

In the case of “UniProt Q8CIH5 (peptide sequence: RRQEELNNQLFLYDTHQNLR, peptide start residue: 1205)”, the log2 fold change was -0.553.

Regarding “UniProt Q8K0H5 (peptide sequence: FISDIANDALQHCK, peptide start residue: 162)”, the log2 fold change amounted to 0.129.

Consider “UniProt Q8CHT6 (peptide sequence: QFLLTCPGER, peptide start residue: 235)”, for which the log2 fold change is 0.153.

Regarding “UniProt Q8CI94 (peptide sequence: GIAGLGDVAEVR, peptide start residue: 18)”, the log2 fold change is -0.108.

Regarding “UniProt Q8CE47 (peptide sequence: GHSEWAETMPR, peptide start residue: 504)”, the log2 fold change turned out to be 0.473.

Regarding “UniProt Q8CH02 (peptide sequence: MNMNILHQEELIAQK, peptide start residue: 28)”, the log2 fold change was -0.167.

Take “UniProt Q8JZV9 (peptide sequence: DNPKEALK, peptide start residue: 193)”: the log2 fold change is -0.218.
